Laboratory results: PubChem BioAssay AID743121 (NCATS, 2013)
In all, the deposit lists about 26,000 reagents; shown is a part drawn at random. 167 of them (0.63%) were called active. 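Calls are per gene from RSA p-values that are not deposited; an individual active-marked siRNA can sensitise only weakly.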 A number with no mark means an inactive call. Reagents against one gene are numbered here. Not all columns of the deposit are shown.

Assay: 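Knock-downs that sensitise breast cancer cells to camptothecin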 (primary screen)
System: MDA-MB-231 cells, a human breast cancer line
Reagents: single siRNA against human genes, 20 nM siRNA (0.8 pmol per well)
Timing: 120 h (drug added 48 h after transfection, read 72 h later)
Conditions: camptothecin 20 nM (about EC30) for 72 h; vehicle 0.1% DMSO in parallel plates
Measurement: 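CellTiter-Glo ATP signal, scaled to control siRNA as percent viability; sensitisation given as log2 of untreated divided by camptothecin-treated viability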
Direction: log2 vehicle/camptothecin viability: higher = stronger sensitisation to camptothecin
Active means: 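Active genes have an RSA gene-level p-value below 0.001, computed from the ratios of their separate siRNAs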

log2 vehicle/camptothecin viability, by target and reagent
PLXNA3: #1 -0.049; #2 -0.256; #3 -0.301; #4 -0.0108
GGA3: #1 -0.127; #2 0.919; #3 0.287; #4 -0.097
DHRS9: #1 -0.483; #2 -0.17; #3 0.149
LMLN: #1 0.244; #2 -0.139; #3 0.138; #4 0.0102
RPL35: #1 -0.591; #2 0.181; #3 -0.579
LDLRAD4: #1 -0.379; #2 0.517; #3 -0.485; #4 -0.114
CTSG: #1 0.205; #2 0.207; #3 0.00795; #4 0.165

Laid out differently: 8 of the entries above
{"target":"RPL35","siRNA no.":2,"log2 vehicle/camptothecin viability":0.181}
{"target":"RPL35","siRNA no.":3,"log2 vehicle/camptothecin viability":-0.579}
{"target":"LDLRAD4","siRNA no.":1,"log2 vehicle/camptothecin viability":-0.379}
{"target":"LDLRAD4","siRNA no.":2,"log2 vehicle/camptothecin viability":0.517}
{"target":"LDLRAD4","siRNA no.":3,"log2 vehicle/camptothecin viability":-0.485}
{"target":"LDLRAD4","siRNA no.":4,"log2 vehicle/camptothecin viability":-0.114}
{"target":"CTSG","siRNA no.":1,"log2 vehicle/camptothecin viability":0.205}
{"target":"CTSG","siRNA no.":2,"log2 vehicle/camptothecin viability":0.207}

More reagents follow:
log2 vehicle/camptothecin viability, by target and reagent
MSGN1: #1 -0.247; #2 0.242; #3 0.321; #4 -0.249
RAB30: #1 0.426; #2 -0.131; #3 -0.72
MED13: #1 0.598; #2 -0.31; #3 -0.188; #4 -0.276
HJURP: #1 0.336; #2 -0.215; #3 -0.12; #4 -0.518
RIOK2: #1 -0.706; #2 -0.345; #3 -0.385; #4 -0.547
BRD3: #1 -0.21; #2 0.0614; #3 -0.568; #4 -0.327
